In assay [1] the target is T1, Synechocystis sp. PCC 6803 GCS P-protein (glycine decarboxylase), recombinant (Synechocystis sp. PCC 6803) (UniProt P74416).
T1 sequence: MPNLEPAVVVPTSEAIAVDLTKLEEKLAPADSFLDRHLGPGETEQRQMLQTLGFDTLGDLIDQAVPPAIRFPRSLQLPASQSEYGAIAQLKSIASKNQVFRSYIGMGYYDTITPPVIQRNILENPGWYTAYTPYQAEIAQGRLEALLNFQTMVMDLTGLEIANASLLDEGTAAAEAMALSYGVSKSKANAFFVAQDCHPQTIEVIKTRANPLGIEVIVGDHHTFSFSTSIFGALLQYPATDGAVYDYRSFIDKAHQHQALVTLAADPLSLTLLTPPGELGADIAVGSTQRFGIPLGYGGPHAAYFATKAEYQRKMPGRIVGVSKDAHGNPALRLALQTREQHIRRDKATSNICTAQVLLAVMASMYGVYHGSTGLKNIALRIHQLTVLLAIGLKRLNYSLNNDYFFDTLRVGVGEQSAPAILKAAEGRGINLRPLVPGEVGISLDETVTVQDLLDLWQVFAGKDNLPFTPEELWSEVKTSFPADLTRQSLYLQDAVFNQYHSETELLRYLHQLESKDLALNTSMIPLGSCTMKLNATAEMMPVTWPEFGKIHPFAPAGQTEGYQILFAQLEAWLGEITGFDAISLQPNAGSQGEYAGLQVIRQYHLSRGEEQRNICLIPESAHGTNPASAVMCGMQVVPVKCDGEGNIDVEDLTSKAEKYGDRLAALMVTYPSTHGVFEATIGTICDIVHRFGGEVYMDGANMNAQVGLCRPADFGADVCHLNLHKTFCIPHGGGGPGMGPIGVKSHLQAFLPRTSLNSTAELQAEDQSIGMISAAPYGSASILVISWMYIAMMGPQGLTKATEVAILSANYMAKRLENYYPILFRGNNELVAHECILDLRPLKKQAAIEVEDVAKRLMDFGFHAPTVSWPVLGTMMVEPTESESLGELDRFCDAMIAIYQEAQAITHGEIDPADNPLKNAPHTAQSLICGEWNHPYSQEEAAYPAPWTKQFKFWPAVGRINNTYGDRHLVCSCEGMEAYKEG
The experiment in a line: pull-down.

Assay [2] deals with T2, recombinant formate dehydrogenase (Pseudomonas sp. 101) (Pseudomonas sp. 101) (UniProt P33160).
T2 sequence: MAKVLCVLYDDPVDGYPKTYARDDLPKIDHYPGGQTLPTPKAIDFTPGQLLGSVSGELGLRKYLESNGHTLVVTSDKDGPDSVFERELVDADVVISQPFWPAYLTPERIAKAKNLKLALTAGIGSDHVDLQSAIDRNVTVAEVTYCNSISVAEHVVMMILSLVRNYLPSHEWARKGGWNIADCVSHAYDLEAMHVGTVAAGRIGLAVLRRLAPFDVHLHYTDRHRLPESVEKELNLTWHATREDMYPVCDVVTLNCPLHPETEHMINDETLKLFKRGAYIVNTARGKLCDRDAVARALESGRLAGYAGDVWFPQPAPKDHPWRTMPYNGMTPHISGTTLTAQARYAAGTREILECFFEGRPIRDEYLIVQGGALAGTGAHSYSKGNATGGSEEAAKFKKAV
The experiment in a line: pull-down.

Assay [3] addresses T3, Synechocystis sp. PCC 6803 GCS L-protein (dihydrolipoamide dehydrogenase), recombinant (Synechocystis sp. PCC 6803) (UniProt P72740).
T3 sequence: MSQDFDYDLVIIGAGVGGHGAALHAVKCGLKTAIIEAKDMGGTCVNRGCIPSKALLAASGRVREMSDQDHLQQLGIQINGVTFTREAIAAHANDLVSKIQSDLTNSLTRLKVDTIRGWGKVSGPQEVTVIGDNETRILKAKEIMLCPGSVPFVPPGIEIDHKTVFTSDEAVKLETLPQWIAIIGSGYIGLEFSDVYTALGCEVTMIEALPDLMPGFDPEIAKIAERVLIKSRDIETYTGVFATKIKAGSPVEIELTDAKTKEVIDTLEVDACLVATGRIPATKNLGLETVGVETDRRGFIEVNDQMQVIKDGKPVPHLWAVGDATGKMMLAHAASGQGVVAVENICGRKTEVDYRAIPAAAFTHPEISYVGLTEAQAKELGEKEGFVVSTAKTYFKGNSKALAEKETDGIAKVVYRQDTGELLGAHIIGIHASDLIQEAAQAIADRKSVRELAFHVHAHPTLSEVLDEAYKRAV
The experiment in a line: pull-down.

Assay [4] concerns the target T1, Synechocystis sp. PCC 6803 GCS P-protein (glycine decarboxylase), recombinant (Synechocystis sp. PCC 6803). The experiment in a line: molecular mass cut-off filtration.
The target in assay [5] is T4, Synechocystis sp. PCC 6803 GCS T-protein (aminomethyltransferase), recombinant (Synechocystis sp. PCC 6803) (UniProt P54261).
T4 sequence: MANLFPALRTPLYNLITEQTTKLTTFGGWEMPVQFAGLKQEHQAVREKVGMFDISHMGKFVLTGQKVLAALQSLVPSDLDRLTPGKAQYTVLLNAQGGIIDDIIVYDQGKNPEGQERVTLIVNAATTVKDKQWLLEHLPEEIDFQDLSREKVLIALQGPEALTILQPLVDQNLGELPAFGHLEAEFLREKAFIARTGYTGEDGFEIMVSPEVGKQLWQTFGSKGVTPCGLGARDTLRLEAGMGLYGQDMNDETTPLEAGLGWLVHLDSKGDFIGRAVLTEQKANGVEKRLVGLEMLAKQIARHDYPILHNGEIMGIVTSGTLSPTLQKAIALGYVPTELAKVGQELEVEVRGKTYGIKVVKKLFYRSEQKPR
The experiment in a line: molecular mass cut-off filtration.

The target of assay [6] is T3, Synechocystis sp. PCC 6803 GCS L-protein (dihydrolipoamide dehydrogenase), recombinant (Synechocystis sp. PCC 6803). The experiment in a line: molecular mass cut-off filtration.

Results are given in words; binding and its absence hold for the method and conditions named. For part of these data: Binding seen in cells or lysates may run through a third protein. Some results given as binding are weak or reduced against the parent protein; the word gives no strength.

Here are results for 3 molecules from article doi:10.1101/2020.03.16.993188 (bioRxiv, 2020).

B1: Synechocystis sp. PCC 6803 GCS L-protein (dihydrolipoamide dehydrogenase), recombinant (enzyme)
chain: T3 sequence
Turning to B1, the binding entry in assay [1] is given as “binds”; in assay [2] it was “no binding”.

B2: Synechocystis sp. PCC 6803 GCS P-protein (glycine decarboxylase), recombinant (enzyme)
chain: T1 sequence
With B2, the binding entry in assay [3] was “binds”.

B3: Synechocystis sp. PCC 6803 GCS H-apoprotein (non-lipoylated), recombinant (protein, UniProt P73560 1-132)
chain: MELEHPDDLYYLDSHEYVRFDGETATIGLSAFAVDELGDIVFVELPEEGDKVEFEQSMGAVESVKAASDLYSPVTGTVIEKNSALEDQPELLNQDPYGEEGWLIKVRLDDVEDAKEGLMAAGDYRATLETGD
With B3, the binding result in assay [4], in assay [5] and in assay [6] was “binds” in each case.
